PubChem BioAssay AID1259254, NCATS, 2017
In all, the deposit lists about 59,000 reagents; below is an unselected part. Of all reagents, about 1,550 (2.6%) got an active call. 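G2 share is only a proxy for re-replication; each gene was hit by three separate siRNAs, and active genes were retested.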 Raw values are not corrected between plates. Reagents against one gene are numbered here. Not stated in the record: the amount of reagent.

- Assay: 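Gene knock-downs that lead to re-replication, shown by excess G2 DNA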 (primary screen)
- Cells: human HCT116 colorectal cancer cells
- Knock-down reagent: single siRNA against human genes
- Time to read-out: 3 days
- Measured: 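Nuclei stained with Hoechst and imaged; cell-cycle phase assigned by DNA content; G2 share scaled per plate, non-targeting siRNA 0%, GMNN siRNA 100%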
- Reading the numbers: G2 robust z-score and G2 cells, % of GMNN control: higher = more G2 cells, more excess DNA replication; raw share of cells in G2: higher = larger share of cells with G2 DNA content
- Call rule: 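An siRNA counts as active if its G2 robust z-score lies at least 5 MADs above the screen median; here such calls match roughly 38% of GMNN control or more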

gene,reagent no.,G2 robust z-score,"G2 cells, % of GMNN control",raw share of cells in G2 (%),Call
PRDX3 (GeneID 10935),1,8.52,62.9,24.2,active
PRDX3 (GeneID 10935),2,1.02,10.2,10.1,inactive
PRDX3 (GeneID 10935),3,-1.42,-7.04,3.7,inactive
IPO4 (GeneID 79711),1,1.15,11.1,8.88,inactive
IPO4 (GeneID 79711),2,-0.957,-3.76,3.86,inactive
IPO4 (GeneID 79711),3,4.92,37.6,17.8,inactive
ENTPD5 (GeneID 957),1,3.63,28.5,14.1,inactive
ENTPD5 (GeneID 957),2,0.514,6.58,6.29,inactive
ENTPD5 (GeneID 957),3,-0.724,-2.12,2.86,inactive
DNM1P49 (GeneID 730058),1,-0.0849,2.37,4.04,inactive
DNM1P49 (GeneID 730058),2,-0.318,0.728,4.38,inactive
DNM1P49 (GeneID 730058),3,1.82,15.8,8.55,inactive
NAA11 (GeneID 84779),1,-1.03,-4.29,2.68,inactive
NAA11 (GeneID 84779),2,0.0211,3.12,4.38,inactive
NAA11 (GeneID 84779),3,0.245,4.69,3.83,inactive
SLAMF9 (GeneID 89886),1,1.77,15.4,10.6,inactive
SLAMF9 (GeneID 89886),2,-0.167,1.79,3.56,inactive
SLAMF9 (GeneID 89886),3,1.22,11.5,6.58,inactive
CDC42EP5 (GeneID 148170),1,2.33,19.3,10.3,inactive
CDC42EP5 (GeneID 148170),2,-1.19,-5.41,1.24,inactive
CDC42EP5 (GeneID 148170),3,-0.347,0.529,3.25,inactive
ZNF432 (GeneID 9668),1,-0.799,-2.65,2.64,inactive
ZNF432 (GeneID 9668),2,-1.45,-7.27,2.75,inactive
ZNF432 (GeneID 9668),3,-0.164,1.82,4.1,inactive
DRC4 (GeneID 2622),1,0.394,5.74,7.99,inactive
DRC4 (GeneID 2622),2,1.71,15,9.58,inactive
DRC4 (GeneID 2622),3,5.09,38.8,18.7,active
SNAP25 (GeneID 6616),1,0.509,6.55,6.06,inactive
SNAP25 (GeneID 6616),2,-0.493,-0.501,4.61,inactive
SNAP25 (GeneID 6616),3,0.0928,3.62,4.42,inactive
SLC16A8 (GeneID 23539),1,-1.01,-4.17,2.44,inactive
SLC16A8 (GeneID 23539),2,2.31,19.2,14.1,inactive
SLC16A8 (GeneID 23539),3,0.413,5.87,6.12,inactive
SLC26A3 (GeneID 1811),1,0.172,4.17,5.53,inactive
SLC26A3 (GeneID 1811),2,-0.0243,2.8,6.01,inactive
SLC26A3 (GeneID 1811),3,1.07,10.5,8.7,inactive
MAGEA6 (GeneID 4105),1,6.38,47.8,20.6,active
MAGEA6 (GeneID 4105),2,-0.795,-2.62,3.86,inactive
MAGEA6 (GeneID 4105),3,-0.309,0.795,4.54,inactive
NSMAF (GeneID 8439),1,0.439,6.05,7.82,inactive
NSMAF (GeneID 8439),2,0.77,8.38,7.22,inactive
NSMAF (GeneID 8439),3,-0.689,-1.88,2.68,inactive
TOPORS (GeneID 10210),1,-1.21,-5.53,3.29,inactive
TOPORS (GeneID 10210),2,0.394,5.74,5.7,inactive
TOPORS (GeneID 10210),3,-1.57,-8.09,3.29,inactive
ZFP69B (GeneID 65243),1,0.447,6.11,4.95,inactive
ZFP69B (GeneID 65243),2,-1.4,-6.9,2.79,inactive
ZFP69B (GeneID 65243),3,1.19,11.4,7.2,inactive
OR2AG2 (GeneID 338755),1,2.63,21.5,11.4,inactive
OR2AG2 (GeneID 338755),2,0.263,4.81,5.37,inactive
OR2AG2 (GeneID 338755),3,0.345,5.4,6.36,inactive
HOXC9 (GeneID 3225),1,2.04,17.3,11.3,inactive
HOXC9 (GeneID 3225),2,0.772,8.4,8.88,inactive
HOXC9 (GeneID 3225),3,2.37,19.7,11.4,inactive
ATPAF2 (GeneID 91647),1,-0.195,1.6,3.43,inactive
ATPAF2 (GeneID 91647),2,4.59,35.2,19,inactive
ATPAF2 (GeneID 91647),3,1.99,16.9,8.31,inactive
FBXO38 (GeneID 81545),1,0.482,6.36,7.08,inactive
FBXO38 (GeneID 81545),2,-0.601,-1.26,3.75,inactive
FBXO38 (GeneID 81545),3,-0.808,-2.72,1.63,inactive
PIK3IP1 (GeneID 113791),1,-0.228,1.36,4.64,inactive
PIK3IP1 (GeneID 113791),2,3.02,24.2,10.6,inactive
PIK3IP1 (GeneID 113791),3,-0.344,0.544,1.98,inactive
VWC2 (GeneID 375567),1,0.0164,3.08,4.83,inactive
VWC2 (GeneID 375567),2,1.84,15.9,10.3,inactive
VWC2 (GeneID 375567),3,2.23,18.6,12.6,inactive
STRN3 (GeneID 29966),1,0.156,4.06,4.53,inactive
STRN3 (GeneID 29966),2,7.69,57.1,25.7,active
STRN3 (GeneID 29966),3,-0.217,1.44,5.09,inactive

7 entries from above, limited to “G2 robust z-score”.
IPO4 (GeneID 79711) #3	4.92
ENTPD5 (GeneID 957) #1	3.63
ENTPD5 (GeneID 957) #2	0.514
ENTPD5 (GeneID 957) #3	-0.724
DNM1P49 (GeneID 730058) #1	-0.0849
DNM1P49 (GeneID 730058) #2	-0.318
DNM1P49 (GeneID 730058) #3	1.82
